# Results: paper PMC7819943, “Rice protein-binding microarrays: a tool to detect cis-acting elements near promoter regions in rice”
# Some of the results follow.
# Biological target: T1, OsSMF1 (Oryza sativa, UniProt Q6ZLB0 1-436)
# T1 sequence: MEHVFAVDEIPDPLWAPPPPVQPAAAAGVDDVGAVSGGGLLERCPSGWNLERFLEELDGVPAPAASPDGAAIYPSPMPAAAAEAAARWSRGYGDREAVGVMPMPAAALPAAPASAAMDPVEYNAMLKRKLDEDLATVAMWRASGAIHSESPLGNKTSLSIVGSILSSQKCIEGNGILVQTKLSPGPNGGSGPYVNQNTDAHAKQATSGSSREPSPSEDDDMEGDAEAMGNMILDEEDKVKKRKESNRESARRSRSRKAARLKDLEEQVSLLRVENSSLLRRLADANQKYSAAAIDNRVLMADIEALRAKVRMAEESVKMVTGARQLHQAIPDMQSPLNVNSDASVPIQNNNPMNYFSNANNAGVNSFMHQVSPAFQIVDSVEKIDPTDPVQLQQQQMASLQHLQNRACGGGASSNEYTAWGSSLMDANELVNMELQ
# Test: protein-binding microarray (RPBM); PBS, 2% BSA, 51.3 ng/ul salmon testes DNA, 50 uM zinc acetate, 200 nM TF, 25 C, 1 h; high values mean tight binding
# Details: protein: recombinant; tags: N-terminal polyhistidine and DsRed monomer fusion (pET32a); chain copies: 2; label: CyDye5-dUTP incorporated in the synthesized complementary strand; 3' TTTTT single-stranded linker to array surface; dsDNA, one strand shown
# Summary of the method: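 Binding signal here means per-feature fluorescence intensity in arbitrary units. The values were read on an Axon 4000B scanner after a custom Agilent array, double-stranded by primer extension with Cy5-dUTP, was incubated with 200 nM protein at 25 °C for 1 h in PBS with 2% BSA, salmon testes DNA and 50 µM zinc acetate, then washed. The proteins were transcription factors with an N-terminal polyhistidine tag and DsRed, expressed in E. coli BL21-CodonPlus and purified on Ni–NTA.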
row,Sequence,binding signal
1,CCCTGCGCCGGCTGCCACACCCCACTCCGGCGACCCCTCTCGGAGTCACCTAGTGCAG,3360 fluorescence intensity (a.u.)
2,CCACTTCCCACCCGTAGCGCCTCCCCGCGAACCCACTCCCCGGAGTCACCTAGTGCAG,22200 fluorescence intensity (a.u.)
3,TTTGTTGTTAAAGGCTTTTGGTAACCTATATGTCAGCAATCGGAGTCACCTAGTGCAG,4280 fluorescence intensity (a.u.)
4,GCAGGGGCGGGCCCACAATGATTCATGGGTATTCAAATGACGGAGTCACCTAGTGCAG,34100 fluorescence intensity (a.u.)
5,TTGCATCAGGATCACTCTCGTCTTCTTCGCTGTTGTTTTGCGGAGTCACCTAGTGCAG,4140 fluorescence intensity (a.u.)
6,TTCTCCGAGATTTGGAGGCCAAACAGAGGGTTGGAGATTGCGGAGTCACCTAGTGCAG,3320 fluorescence intensity (a.u.)
7,ACTTGTATTAATTCTTTTACGTGTTTAATTATATCGACTTCGGAGTCACCTAGTGCAG,3560 fluorescence intensity (a.u.)
8,CTGAGCTGCCACCTCCGCCGCCGCCAGCATGATGGCCTTGCGGAGTCACCTAGTGCAG,42500 fluorescence intensity (a.u.)
9,TTTCAACGATGCTCATGTACACGGTGGCGTATGTGAGTGTCGGAGTCACCTAGTGCAG,3690 fluorescence intensity (a.u.)
10,GTTCAGCTATCAAAGTCCCTGAATAGTTTAGATTTACATTCGGAGTCACCTAGTGCAG,14100 fluorescence intensity (a.u.)
11,CCAGCTCGGTTATACACACTCTAGCCAACCATGCATGGAGCGGAGTCACCTAGTGCAG,5070 fluorescence intensity (a.u.)
12,AAAAGTAATTTATAAATAAAATTTCTATATACGTGTTCTTCGGAGTCACCTAGTGCAG,3220 fluorescence intensity (a.u.)
13,TTCTTAGGCTATGAGTAGGATTAAGGATCGCAGCCCTTTCCGGAGTCACCTAGTGCAG,3270 fluorescence intensity (a.u.)
14,TTTTCTCGACGTGCGCACGCACGTACACAGACCGAATCGGCGGAGTCACCTAGTGCAG,3770 fluorescence intensity (a.u.)
15,ACCGTGGCGAGGATGGTGACAACATATTTCCAATTCTGTGCGGAGTCACCTAGTGCAG,5730 fluorescence intensity (a.u.)
16,GCTAAACACGACGCTTCCATGGACGCGGGTGACGCGGCTTCGGAGTCACCTAGTGCAG,7270 fluorescence intensity (a.u.)
17,GCTGCATCAGCTGCTGCTACTTCTACTCCTACTGCTGCTGCGGAGTCACCTAGTGCAG,30900 fluorescence intensity (a.u.)
18,CATTTCACAAATGACATCACTGGAGCGCCAAGGTCTAATCCGGAGTCACCTAGTGCAG,4190 fluorescence intensity (a.u.)
19,GAATGCCAAAACATATATTGTGCGAAATGGATCATGTCAACGGAGTCACCTAGTGCAG,3250 fluorescence intensity (a.u.)
20,TGACACATGGGGTCTACGGTATTTTCTGACTAAGTACCACCGGAGTCACCTAGTGCAG,3320 fluorescence intensity (a.u.)
21,AGATGCTCTGTCACTTCTATTGGTGACTTGGTGTTGGATGCGGAGTCACCTAGTGCAG,6620 fluorescence intensity (a.u.)

row,Sequence,binding signal
1,GGCCGGCGGGCGGATGGCGTCGTCGAGGGTGATGGCGGCGCGGAGTCACCTAGTGCAG,3890 fluorescence intensity (a.u.)
2,TAAATGCTCGGGCTAAAACAAGGATGGAACACGTCAGCGGCGGAGTCACCTAGTGCAG,20900 fluorescence intensity (a.u.)
3,AGCGGTTTCGCTGACGTGGCGGTTAGGTGGCATTTGAATTCGGAGTCACCTAGTGCAG,23800 fluorescence intensity (a.u.)
4,TTTTAACAACAGTGAGTGAGTGTGACGCACTGACGCTGCACGGAGTCACCTAGTGCAG,3720 fluorescence intensity (a.u.)
5,GATGGTTTCTCCGGTAGTGACGCTATCAAGTGGCTGCCCCCGGAGTCACCTAGTGCAG,3320 fluorescence intensity (a.u.)
6,GAGTAAACCAATCTATTCGAATAGCCGTACTCACATTTAACGGAGTCACCTAGTGCAG,38500 fluorescence intensity (a.u.)
7,CCTATGAACTATGGCTTATGTACATTAACAGCAGGTTGCGCGGAGTCACCTAGTGCAG,6750 fluorescence intensity (a.u.)
8,GTGCCTCCGTAGCAATGCCACGTCAGCATATGGAGCGGGTCGGAGTCACCTAGTGCAG,44600 fluorescence intensity (a.u.)
9,CATTTGAGAGATTTTGTTTACTATTTTGGCATTGCTCTCACGGAGTCACCTAGTGCAG,11100 fluorescence intensity (a.u.)
10,TCTCGAACGTTCTATTTTAATTTCCCTGACACGTTCGTCTCGGAGTCACCTAGTGCAG,4630 fluorescence intensity (a.u.)
11,CGCGCGTGCTCTCCTCTCCTCTCCTCTCGACTCTCGTGGTCGGAGTCACCTAGTGCAG,4020 fluorescence intensity (a.u.)
12,ATTCTTGCTACCTATAATTGCAACATGACAGAGTGTTAAGCGGAGTCACCTAGTGCAG,3480 fluorescence intensity (a.u.)
13,AAGCCTAATTAATCCGTCATTAACAAATATTTACTGTAGCCGGAGTCACCTAGTGCAG,3330 fluorescence intensity (a.u.)
14,GTGGTAATGCATGCATGAAGAAAGAATGATGAGTTGGAAGCGGAGTCACCTAGTGCAG,3260 fluorescence intensity (a.u.)
15,AGAGCAATTAAACGTCATAGGTATGTTTAGGTCACTTGGTCGGAGTCACCTAGTGCAG,3320 fluorescence intensity (a.u.)
16,CTGCGCTGGATCCGAGTCAGCCTCGCGTCGCTGTCACACTCGGAGTCACCTAGTGCAG,9550 fluorescence intensity (a.u.)
17,TATTTTACTAGCTTTCCCCAACTCATCTCATCTCTGATCTCGGAGTCACCTAGTGCAG,3350 fluorescence intensity (a.u.)
18,ATCTTTAGTCCCGGATTGGTAGTTCCGGTTTGAAAACCGGCGGAGTCACCTAGTGCAG,3760 fluorescence intensity (a.u.)
19,TCCATATGGCATTGCCACATCAGCGCCACATAGGATCGCACGGAGTCACCTAGTGCAG,32000 fluorescence intensity (a.u.)
20,GGCCCCACATGTCATCTCCTCCCTTTCTTCTTCCTCCCCTCGGAGTCACCTAGTGCAG,4040 fluorescence intensity (a.u.)
21,GCTAATCGGCGGCGCGTGACGTTAGCTCACCTGAAGCGGTCGGAGTCACCTAGTGCAG,6370 fluorescence intensity (a.u.)

# Some of the entries so far, tab-delimited.
row	Sequence	binding signal
13	TTCTTAGGCTATGAGTAGGATTAAGGATCGCAGCCCTTTCCGGAGTCACCTAGTGCAG	3270 fluorescence intensity (a.u.)
14	TTTTCTCGACGTGCGCACGCACGTACACAGACCGAATCGGCGGAGTCACCTAGTGCAG	3770 fluorescence intensity (a.u.)
15	ACCGTGGCGAGGATGGTGACAACATATTTCCAATTCTGTGCGGAGTCACCTAGTGCAG	5730 fluorescence intensity (a.u.)
